# Source: the supplement of paper PMC10849652
# Chains of the proteins cited; added tags and fusions are not shown. Lines headed by an entry give the natural chain unless they say otherwise; changes in a name come on top.
# UniProt Q96C11: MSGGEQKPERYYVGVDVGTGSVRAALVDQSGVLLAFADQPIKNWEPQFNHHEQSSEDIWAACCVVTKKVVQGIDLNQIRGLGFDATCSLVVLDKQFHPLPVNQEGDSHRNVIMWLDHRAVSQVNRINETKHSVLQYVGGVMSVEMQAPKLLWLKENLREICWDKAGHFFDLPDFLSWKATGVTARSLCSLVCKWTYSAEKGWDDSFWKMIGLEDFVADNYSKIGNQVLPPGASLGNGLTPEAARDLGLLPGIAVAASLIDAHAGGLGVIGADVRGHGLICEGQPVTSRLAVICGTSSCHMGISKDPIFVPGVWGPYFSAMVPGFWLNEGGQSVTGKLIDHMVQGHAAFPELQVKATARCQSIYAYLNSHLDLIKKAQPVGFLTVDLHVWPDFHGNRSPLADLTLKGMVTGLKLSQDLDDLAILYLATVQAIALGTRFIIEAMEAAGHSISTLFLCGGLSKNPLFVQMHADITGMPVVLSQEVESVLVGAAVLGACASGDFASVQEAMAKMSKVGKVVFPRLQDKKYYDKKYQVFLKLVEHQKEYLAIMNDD
# UniProt Q8WVX9: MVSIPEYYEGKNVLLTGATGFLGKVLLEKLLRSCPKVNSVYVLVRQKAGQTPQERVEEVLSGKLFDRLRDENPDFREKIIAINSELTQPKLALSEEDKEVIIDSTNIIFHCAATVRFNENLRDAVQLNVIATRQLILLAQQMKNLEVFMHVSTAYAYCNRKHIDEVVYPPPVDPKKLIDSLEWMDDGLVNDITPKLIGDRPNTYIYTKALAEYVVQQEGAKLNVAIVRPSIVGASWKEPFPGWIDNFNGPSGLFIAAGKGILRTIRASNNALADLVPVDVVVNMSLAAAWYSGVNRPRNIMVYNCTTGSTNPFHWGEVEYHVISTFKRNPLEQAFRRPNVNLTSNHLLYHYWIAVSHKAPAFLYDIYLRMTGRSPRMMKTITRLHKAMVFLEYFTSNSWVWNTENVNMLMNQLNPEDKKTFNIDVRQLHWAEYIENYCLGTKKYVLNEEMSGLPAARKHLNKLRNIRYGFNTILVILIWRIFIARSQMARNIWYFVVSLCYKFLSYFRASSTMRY
# UniProt Q8NFF5: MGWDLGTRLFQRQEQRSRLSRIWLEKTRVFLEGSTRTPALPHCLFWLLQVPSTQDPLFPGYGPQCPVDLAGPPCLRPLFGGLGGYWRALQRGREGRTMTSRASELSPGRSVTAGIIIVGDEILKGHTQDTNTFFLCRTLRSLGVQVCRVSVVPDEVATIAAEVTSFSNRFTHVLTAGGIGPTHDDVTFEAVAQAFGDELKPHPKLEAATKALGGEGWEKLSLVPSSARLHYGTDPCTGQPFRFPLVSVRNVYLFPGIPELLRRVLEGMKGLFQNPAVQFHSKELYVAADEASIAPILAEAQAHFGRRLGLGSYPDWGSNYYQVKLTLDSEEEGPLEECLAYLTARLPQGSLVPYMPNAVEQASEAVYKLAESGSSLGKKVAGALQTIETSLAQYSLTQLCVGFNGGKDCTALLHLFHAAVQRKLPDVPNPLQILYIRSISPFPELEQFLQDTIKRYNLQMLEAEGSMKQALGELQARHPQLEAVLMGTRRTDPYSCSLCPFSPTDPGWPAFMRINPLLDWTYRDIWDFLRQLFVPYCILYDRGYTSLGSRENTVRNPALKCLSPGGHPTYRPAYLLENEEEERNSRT
# UniProt Q13451: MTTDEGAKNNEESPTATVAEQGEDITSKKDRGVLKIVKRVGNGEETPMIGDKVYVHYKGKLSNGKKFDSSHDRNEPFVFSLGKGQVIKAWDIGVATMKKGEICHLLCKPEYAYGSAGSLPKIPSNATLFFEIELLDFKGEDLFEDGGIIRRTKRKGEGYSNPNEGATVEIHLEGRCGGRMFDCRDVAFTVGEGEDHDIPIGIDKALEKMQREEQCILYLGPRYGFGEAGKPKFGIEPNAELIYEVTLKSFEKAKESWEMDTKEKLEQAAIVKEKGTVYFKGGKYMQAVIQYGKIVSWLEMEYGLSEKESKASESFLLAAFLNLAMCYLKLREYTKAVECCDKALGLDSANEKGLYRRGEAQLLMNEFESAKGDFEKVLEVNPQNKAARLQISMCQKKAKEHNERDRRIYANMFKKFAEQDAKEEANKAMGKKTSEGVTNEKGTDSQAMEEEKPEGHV
# UniProt Q96CP2: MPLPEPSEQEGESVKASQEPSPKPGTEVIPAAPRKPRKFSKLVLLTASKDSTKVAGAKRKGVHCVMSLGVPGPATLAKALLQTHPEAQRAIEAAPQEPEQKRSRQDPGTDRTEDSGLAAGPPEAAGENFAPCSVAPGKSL
# UniProt P09038, whole entry, looked up: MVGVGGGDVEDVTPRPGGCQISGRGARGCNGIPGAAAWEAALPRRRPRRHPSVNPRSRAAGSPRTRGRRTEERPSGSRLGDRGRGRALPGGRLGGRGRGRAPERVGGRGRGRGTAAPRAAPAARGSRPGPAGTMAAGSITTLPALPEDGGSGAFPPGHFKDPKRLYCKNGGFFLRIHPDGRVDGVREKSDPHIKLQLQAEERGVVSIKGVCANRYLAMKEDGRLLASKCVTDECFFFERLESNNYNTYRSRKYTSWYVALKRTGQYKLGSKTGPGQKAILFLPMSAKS
# UniProt Q9Y285: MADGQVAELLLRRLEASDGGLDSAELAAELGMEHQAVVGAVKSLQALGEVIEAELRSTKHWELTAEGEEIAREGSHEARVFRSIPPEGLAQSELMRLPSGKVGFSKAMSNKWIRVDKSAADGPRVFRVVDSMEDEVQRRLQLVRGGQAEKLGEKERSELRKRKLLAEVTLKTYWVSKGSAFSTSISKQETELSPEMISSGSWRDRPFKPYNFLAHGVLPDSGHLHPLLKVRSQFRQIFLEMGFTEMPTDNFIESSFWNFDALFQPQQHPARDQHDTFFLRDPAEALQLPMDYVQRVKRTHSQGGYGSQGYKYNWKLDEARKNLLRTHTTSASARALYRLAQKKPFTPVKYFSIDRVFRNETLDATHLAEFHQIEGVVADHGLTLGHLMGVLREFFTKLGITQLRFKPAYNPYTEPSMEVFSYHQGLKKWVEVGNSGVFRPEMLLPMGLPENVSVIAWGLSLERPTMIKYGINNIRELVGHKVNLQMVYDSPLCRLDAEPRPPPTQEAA
# UniProt O75955: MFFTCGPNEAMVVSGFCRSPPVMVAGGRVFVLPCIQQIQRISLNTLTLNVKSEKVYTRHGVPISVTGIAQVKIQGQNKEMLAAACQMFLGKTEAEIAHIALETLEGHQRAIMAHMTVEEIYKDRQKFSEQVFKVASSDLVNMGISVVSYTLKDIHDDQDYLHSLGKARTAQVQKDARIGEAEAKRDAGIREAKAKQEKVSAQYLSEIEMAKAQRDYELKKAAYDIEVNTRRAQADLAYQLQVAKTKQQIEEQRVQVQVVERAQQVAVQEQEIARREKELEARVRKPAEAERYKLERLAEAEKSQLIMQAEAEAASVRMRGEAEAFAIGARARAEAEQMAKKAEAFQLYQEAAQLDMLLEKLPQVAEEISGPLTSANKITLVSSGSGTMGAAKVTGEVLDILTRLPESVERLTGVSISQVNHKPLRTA
# UniProt Q6UN15: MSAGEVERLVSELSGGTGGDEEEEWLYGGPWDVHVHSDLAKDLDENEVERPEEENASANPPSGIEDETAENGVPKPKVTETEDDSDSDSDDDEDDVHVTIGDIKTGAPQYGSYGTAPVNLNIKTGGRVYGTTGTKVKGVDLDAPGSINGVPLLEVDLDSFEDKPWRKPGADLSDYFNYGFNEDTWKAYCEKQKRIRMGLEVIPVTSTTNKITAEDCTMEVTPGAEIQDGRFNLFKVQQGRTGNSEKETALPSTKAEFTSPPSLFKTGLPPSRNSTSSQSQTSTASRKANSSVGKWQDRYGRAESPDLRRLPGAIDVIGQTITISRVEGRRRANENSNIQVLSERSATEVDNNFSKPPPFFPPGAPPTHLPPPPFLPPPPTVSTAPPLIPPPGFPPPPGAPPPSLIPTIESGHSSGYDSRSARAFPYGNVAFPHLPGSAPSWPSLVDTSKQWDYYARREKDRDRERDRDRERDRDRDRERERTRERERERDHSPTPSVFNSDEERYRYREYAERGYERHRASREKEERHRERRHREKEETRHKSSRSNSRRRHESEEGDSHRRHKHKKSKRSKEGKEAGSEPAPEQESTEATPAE
# UniProt Q9Y613: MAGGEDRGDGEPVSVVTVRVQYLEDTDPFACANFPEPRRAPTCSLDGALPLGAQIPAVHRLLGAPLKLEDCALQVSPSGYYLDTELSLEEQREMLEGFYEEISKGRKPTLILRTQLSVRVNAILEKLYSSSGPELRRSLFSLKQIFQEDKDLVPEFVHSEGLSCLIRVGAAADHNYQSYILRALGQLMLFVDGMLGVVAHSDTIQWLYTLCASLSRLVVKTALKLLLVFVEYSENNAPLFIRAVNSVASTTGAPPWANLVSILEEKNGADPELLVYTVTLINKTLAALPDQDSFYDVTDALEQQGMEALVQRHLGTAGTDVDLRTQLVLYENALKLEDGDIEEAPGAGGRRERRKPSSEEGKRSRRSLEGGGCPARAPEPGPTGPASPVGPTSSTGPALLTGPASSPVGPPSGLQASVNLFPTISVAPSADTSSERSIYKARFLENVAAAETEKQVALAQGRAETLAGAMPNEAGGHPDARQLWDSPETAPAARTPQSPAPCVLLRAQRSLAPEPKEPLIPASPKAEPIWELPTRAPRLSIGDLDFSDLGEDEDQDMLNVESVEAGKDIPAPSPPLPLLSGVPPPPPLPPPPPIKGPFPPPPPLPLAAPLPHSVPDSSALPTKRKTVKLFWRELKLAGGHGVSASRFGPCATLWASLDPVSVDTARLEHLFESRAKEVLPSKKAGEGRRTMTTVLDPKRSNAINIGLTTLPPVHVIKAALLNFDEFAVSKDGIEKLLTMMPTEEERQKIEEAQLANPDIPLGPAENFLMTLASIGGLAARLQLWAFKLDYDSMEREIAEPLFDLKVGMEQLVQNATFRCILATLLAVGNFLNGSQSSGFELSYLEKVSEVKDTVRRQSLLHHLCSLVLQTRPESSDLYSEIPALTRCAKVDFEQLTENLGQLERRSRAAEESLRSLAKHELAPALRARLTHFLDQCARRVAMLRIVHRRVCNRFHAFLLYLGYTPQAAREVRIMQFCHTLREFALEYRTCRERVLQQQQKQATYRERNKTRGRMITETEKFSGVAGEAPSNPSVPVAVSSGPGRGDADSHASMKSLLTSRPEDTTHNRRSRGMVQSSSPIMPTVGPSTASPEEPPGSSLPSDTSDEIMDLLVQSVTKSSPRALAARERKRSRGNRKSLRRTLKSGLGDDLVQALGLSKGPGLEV
# UniProt Q8TF40: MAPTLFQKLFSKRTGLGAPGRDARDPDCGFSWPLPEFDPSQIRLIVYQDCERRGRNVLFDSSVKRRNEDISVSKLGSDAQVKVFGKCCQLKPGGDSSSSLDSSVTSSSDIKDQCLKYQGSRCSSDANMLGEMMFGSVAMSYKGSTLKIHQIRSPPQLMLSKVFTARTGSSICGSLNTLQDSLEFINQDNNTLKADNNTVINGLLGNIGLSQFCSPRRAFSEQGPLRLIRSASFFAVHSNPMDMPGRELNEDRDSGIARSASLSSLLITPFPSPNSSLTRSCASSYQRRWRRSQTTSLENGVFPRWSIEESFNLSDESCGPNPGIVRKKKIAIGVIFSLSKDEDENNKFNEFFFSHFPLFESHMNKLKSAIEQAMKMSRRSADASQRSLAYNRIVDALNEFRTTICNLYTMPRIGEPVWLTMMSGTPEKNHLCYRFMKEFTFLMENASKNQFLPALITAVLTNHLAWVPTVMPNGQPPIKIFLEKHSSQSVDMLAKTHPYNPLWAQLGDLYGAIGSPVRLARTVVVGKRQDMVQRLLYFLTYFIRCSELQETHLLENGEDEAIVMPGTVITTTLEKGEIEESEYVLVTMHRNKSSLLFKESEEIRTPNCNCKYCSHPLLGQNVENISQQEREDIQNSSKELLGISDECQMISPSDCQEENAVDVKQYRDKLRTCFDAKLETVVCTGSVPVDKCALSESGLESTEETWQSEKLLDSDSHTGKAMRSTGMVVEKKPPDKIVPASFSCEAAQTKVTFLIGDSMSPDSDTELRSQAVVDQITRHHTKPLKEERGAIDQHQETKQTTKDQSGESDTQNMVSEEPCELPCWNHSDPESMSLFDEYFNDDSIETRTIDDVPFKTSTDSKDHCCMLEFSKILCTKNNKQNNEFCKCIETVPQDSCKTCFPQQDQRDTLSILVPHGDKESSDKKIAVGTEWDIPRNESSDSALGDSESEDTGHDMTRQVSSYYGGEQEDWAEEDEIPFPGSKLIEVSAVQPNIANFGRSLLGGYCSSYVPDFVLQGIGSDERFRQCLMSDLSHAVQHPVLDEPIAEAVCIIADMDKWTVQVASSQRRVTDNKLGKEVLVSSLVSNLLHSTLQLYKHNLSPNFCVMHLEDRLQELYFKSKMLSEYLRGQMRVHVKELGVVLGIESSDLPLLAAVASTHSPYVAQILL
# This is one part of the list.
# Assays:
# Experiment in all cases: log2 fold change, soluble protein after heating vs DMSO (PISA); higher = thermal stabilisation; K562 lysate, 10 uM; active = over 0.2 and 3.5 SD of the protein, either way, in both replicates (recomputed)
# vemurafenib = compound: CCCS(=O)(=O)Nc1ccc(F)c(C(=O)c2c[nH]c3ncc(-c4ccc(Cl)cc4)cc23)c1F [vemurafenib]
# In short: (§1)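 A 30 min treatment with 10 μM compound was applied to crude K562 extract at 1 mg/mL protein in PBS pH 7.4 with 1 mM MgCl2. Heating for 3 min spanned 48°C-58°C, after which aliquots were pooled, adjusted to 0.5% NP-40 at 4°C and spun at 21,000xg for 90 min. TMTpro 16plex LC-MS/MS of the supernatant, with channel sums equalised, gave values recorded as log-two fold change in thermal stability against solvent controls, from duplicates.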
# [1] = compound: CCCS(=O)(=O)Nc1ccc(F)c(C(=O)c2c[nH]c3ncc(Cl)cc23)c1F
# In short: as §1
# barasertib = compound: CCN(CCCOc1ccc2c(Nc3cc(CC(=O)Nc4cccc(F)c4)[nH]n3)ncnc2c1)CCOP(=O)(O)O [barasertib]
# In short: as §1
# [2] = compound: CC[C@@H]1C(=O)N(C)c2cnc(Nc3ccc(C(=O)NC4CCN(C)CC4)cc3OC)nc2N1C1CCCC1
# In short: as §1
# volasertib = compound: CC[C@@H]1C(=O)N(C)c2cnc(Nc3ccc(C(=O)N[C@H]4CC[C@H](N5CCN(CC6CC6)CC5)CC4)cc3OC)nc2N1C(C)C [volasertib]
# In short: as §1
# [3] = compound: CCn1c(C(=O)N(C2CC2)C2CC2)cc2c3c(ncn3C)c(Nc3cc(C)n(C)n3)nc21
# In short: as §1
# [4] = compound: CCn1cc(-c2ccnc3[nH]c(-c4cccc(CN(C)C)c4)cc23)c(-c2ccc(NC(=O)N(C)C)cc2)n1
# In short: as §1
# [5] = compound: CN1CCC(CNc2ccc3ncc(-c4cccc(OC(F)(F)F)c4)n3n2)CC1
# In short: as §1
# saracatinib = compound: CN1CCN(CCOc2cc(OC3CCOCC3)c3c(Nc4c(Cl)ccc5c4OCO5)ncnc3c2)CC1 [saracatinib]
# In short: as §1
# sotrastaurin = compound: CN1CCN(c2nc(C3=C(c4c[nH]c5ccccc45)C(=O)NC3=O)c3ccccc3n2)CC1 [sotrastaurin]
# In short: as §1
# alvocidib = compound: CN1CC[C@H](c2c(O)cc(O)c3c(=O)cc(-c4ccccc4Cl)oc23)[C@H](O)C1 [alvocidib]
# In short: as §1
# Tubastatin A = compound: CN1CCc2c(c3ccccc3n2Cc2ccc(C(=O)NO)cc2)C1 [Tubastatin A]
# In short: as §1
# [6] = compound: CNC(=O)C1=CC=CC=C1NC2=NC(=NC=C2Cl)NC3=C(C=C(C=C3)N4CCOCC4)OC
# In short: as §1
# defactinib = compound: CNC(=O)c1ccc(Nc2ncc(C(F)(F)F)c(NCc3nccnc3N(C)S(C)(=O)=O)n2)cc1 [defactinib]
# In short: as §1
# [7] = compound: CNc1nc(-c2ccc3c(N)n[nH]c3c2)cc(N2C[C@@H](C(=O)NC3CCCCC3)CC[C@H]2C)n1
# In short: as §1
# encorafenib = compound: COC(=O)N[C@@H](C)CNc1nccc(-c2cn(C(C)C)nc2-c2cc(Cl)cc(NS(C)(=O)=O)c2F)n1 [encorafenib]
# In short: as §1
# [8] = compound: COC(=O)[C@H](CCSC)NC(=O)C1=C(C=C(C=C1)NC[C@H](CS)N)C2=CC=CC=C2
# In short: as §1
# alisertib = compound: COc1cc(Nc2ncc3c(n2)-c2ccc(Cl)cc2C(c2c(F)cccc2OC)=NC3)ccc1C(=O)O [alisertib]
# In short: as §1
# [9] = compound: COc1cc2nc(-c3cc(F)ccc3O)nc(N[C@@H]3CNC[C@H]3C(C)(C)O)c2cc1OC
# In short: as §1
# gefitinib = compound: COc1cc2ncnc(Nc3ccc(F)c(Cl)c3)c2cc1OCCCN1CCOCC1 [gefitinib]
# In short: as §1
Target,log2 fold change (vemurafenib),log2 fold change [1],log2 fold change (barasertib),log2 fold change [2],log2 fold change (volasertib),log2 fold change [3],log2 fold change [4],log2 fold change [5],log2 fold change (saracatinib),log2 fold change (sotrastaurin),log2 fold change (alvocidib),log2 fold change (Tubastatin A),log2 fold change [6],log2 fold change (defactinib),log2 fold change [7],log2 fold change (encorafenib),log2 fold change [8],log2 fold change (alisertib),log2 fold change [9],log2 fold change (gefitinib)
FBXO22 (UniProt Q8NEZ5),inactive: 0.017,inactive: 0.001,inactive: 0.025,inactive: 0.011,inactive: -0.027,inactive: 0.012,inactive: -0.002,inactive: -0.008,inactive: -0.015,inactive: 0.01,inactive: -0.027,inactive: -0.002,inactive: -0.074,inactive: 0.01,inactive: -0.004,inactive: -0.014,inactive: -0.006,inactive: 0.034,inactive: 0.013,inactive: 0.017
FERMT2 isoform 3 (UniProt Q96AC1),inactive: 0.077,inactive: -0.029,inactive: 0.02,inactive: -0.017,inactive: -0.032,inactive: 0.037,inactive: -0.013,inactive: 0.062,inactive: 0.049,inactive: 0.001,inactive: 0.057,inactive: -0.009,inactive: 0.08,inactive: -0.024,inactive: 0.088,inactive: -0.012,inactive: -0.048,inactive: 0.046,inactive: 0.01,inactive: 0.091
FN1 (UniProt P02751),inactive: -0.009,inactive: -0.009,inactive: 0.024,inactive: 0.057,inactive: 0.02,inactive: -0.011,inactive: -0.106,inactive: 0.098,inactive: 0.013,inactive: 0.019,inactive: -0.08,inactive: 0.06,inactive: 0.012,inactive: 0.03,inactive: 0.019,inactive: 0.023,inactive: 0.006,inactive: -0.053,inactive: 0.001,inactive: 0.067
FGGY isoform 3 (UniProt Q96C11),inactive: 0.089,inactive: 0.044,inactive: -0.271,inactive: 0.018,inactive: 0.004,inactive: -0.048,inactive: 0.207,inactive: -0.094,inactive: 0.048,inactive: 0.016,inactive: 0.092,inactive: 0.058,inactive: 0.039,inactive: 0.014,inactive: 0.147,inactive: 0.068,inactive: 0.033,inactive: 0.091,inactive: -0.011,inactive: -0.042
FAR1 (UniProt Q8WVX9),inactive: 0.029,inactive: 0.161,inactive: 0.116,inactive: -0.051,inactive: 0.057,inactive: -0.008,inactive: -0.074,inactive: -0.162,inactive: -0.028,inactive: -0.021,inactive: 0,inactive: -0.043,inactive: 0.034,inactive: 0.028,inactive: -0.039,inactive: 0.002,inactive: -0.009,inactive: -0.004,inactive: -0.007,inactive: -0.034
FLAD1 (UniProt Q8NFF5),inactive: -0.051,inactive: 0.022,inactive: -0.063,inactive: 0.055,inactive: -0.028,inactive: 0.01,inactive: -0.002,inactive: -0.035,inactive: -0.001,inactive: 0.075,inactive: 0.035,inactive: -0.214,inactive: 0.039,inactive: -0.008,inactive: -0.013,inactive: 0.031,inactive: 0.137,inactive: -0.025,inactive: -0.013,inactive: -0.042
FKBP5 (UniProt Q13451),inactive: 0.039,inactive: 0,inactive: 0.015,inactive: -0.026,inactive: -0.039,inactive: 0.005,inactive: 0.039,inactive: -0.039,inactive: 0.006,inactive: 0.019,inactive: -0.005,inactive: -0.045,inactive: 0.006,inactive: -0.004,inactive: -0.003,inactive: -0.008,inactive: 0.146,inactive: 0.003,inactive: -0.002,inactive: 0.001
FLYWCH2 (UniProt Q96CP2),inactive: -0.01,inactive: -0.01,inactive: -0.014,inactive: 0.1,inactive: 0.017,inactive: 0.008,inactive: -0.039,inactive: 0.036,inactive: 0.01,inactive: -0.01,inactive: -0.021,inactive: 0.012,inactive: 0.005,inactive: 0.016,inactive: 0.042,inactive: 0.007,inactive: -0.088,inactive: 0.004,inactive: -0.031,inactive: 0.02
FGF2 (UniProt P09038),inactive: -0.014,inactive: 0.03,inactive: -0.018,inactive: -0.117,inactive: 0.026,inactive: 0.089,inactive: -0.132,inactive: 0.072,inactive: -0.018,inactive: 0.031,inactive: -0.025,inactive: -0.017,inactive: 0.021,inactive: -0.215,inactive: 0.052,inactive: 0.11,inactive: -0.077,inactive: 0.136,inactive: -0.019,inactive: 0.058
FARSA (UniProt Q9Y285),inactive: -0.002,inactive: -0.01,inactive: -0.012,inactive: 0.091,inactive: -0.035,inactive: -0.068,inactive: -0.018,inactive: 0.054,inactive: 0.03,active: 0.583,inactive: -0.003,inactive: -0.105,inactive: 0.007,inactive: 0.045,inactive: 0.019,inactive: -0.02,inactive: 0.098,inactive: 0.01,inactive: 0.017,inactive: -0.014
FLOT1 (UniProt O75955),inactive: 0.005,inactive: -0.003,inactive: 0.013,inactive: 0.021,inactive: 0.004,inactive: -0.023,inactive: 0.019,inactive: -0.012,inactive: 0.004,inactive: -0.027,inactive: 0.011,inactive: 0.114,inactive: 0.002,inactive: -0.002,inactive: -0.017,inactive: -0.042,inactive: -0.024,inactive: -0.015,inactive: 0.045,inactive: 0
FIP1L1 (UniProt Q6UN15),inactive: -0.008,inactive: 0.036,inactive: 0.043,inactive: 0.105,inactive: 0,inactive: 0.024,inactive: 0.118,inactive: -0.054,inactive: 0.036,inactive: -0.051,inactive: -0.049,inactive: -0.081,inactive: 0.019,inactive: -0.034,inactive: 0.023,inactive: 0.069,inactive: 0.001,inactive: 0.023,inactive: 0.009,inactive: -0.002
FHOD1 (UniProt Q9Y613),inactive: -0.018,inactive: 0.018,inactive: 0.042,inactive: -0.05,inactive: -0.034,inactive: 0.048,inactive: 0.013,inactive: -0.017,inactive: 0.015,inactive: 0.036,inactive: -0.034,inactive: -0.129,inactive: 0.014,inactive: 0.033,inactive: 0.006,inactive: 0.021,inactive: 0.028,inactive: 0.011,inactive: 0.002,inactive: -0.013
FNIP1 isoform 3 (UniProt Q8TF40),inactive: -0.059,inactive: 0.036,inactive: -0.022,inactive: -0.012,inactive: -0.109,inactive: -0.028,inactive: 0.037,inactive: -0.008,inactive: -0.012,inactive: 0.029,inactive: -0.026,inactive: -0.006,inactive: -0.06,inactive: 0.02,inactive: -0.038,inactive: -0.043,inactive: 0.011,inactive: -0.019,inactive: 0.046,inactive: 0.039
FMR1 (UniProt Q06787),inactive: 0,inactive: -0.005,inactive: -0.073,inactive: -0.083,inactive: -0.065,inactive: 0,inactive: 0.051,inactive: 0.087,inactive: -0.024,inactive: -0.02,inactive: 0,inactive: -0.01,inactive: 0.005,inactive: 0.046,inactive: 0.002,inactive: -0.017,inactive: 0.051,inactive: -0.056,inactive: 0.02,inactive: -0.026

# A different layout for part of the listing above:
Target | log2 fold change (vemurafenib) | log2 fold change [1] | log2 fold change (barasertib) | log2 fold change [2] | log2 fold change (volasertib) | log2 fold change [3] | log2 fold change [4] | log2 fold change [5] | log2 fold change (saracatinib) | log2 fold change (sotrastaurin) | log2 fold change (alvocidib) | log2 fold change (Tubastatin A) | log2 fold change [6] | log2 fold change (defactinib) | log2 fold change [7] | log2 fold change (encorafenib) | log2 fold change [8] | log2 fold change (alisertib) | log2 fold change [9] | log2 fold change (gefitinib)
FGGY isoform 3 (UniProt Q96C11) | inactive: 0.089 | inactive: 0.044 | inactive: -0.271 | inactive: 0.018 | inactive: 0.004 | inactive: -0.048 | inactive: 0.207 | inactive: -0.094 | inactive: 0.048 | inactive: 0.016 | inactive: 0.092 | inactive: 0.058 | inactive: 0.039 | inactive: 0.014 | inactive: 0.147 | inactive: 0.068 | inactive: 0.033 | inactive: 0.091 | inactive: -0.011 | inactive: -0.042
FAR1 (UniProt Q8WVX9) | inactive: 0.029 | inactive: 0.161 | inactive: 0.116 | inactive: -0.051 | inactive: 0.057 | inactive: -0.008 | inactive: -0.074 | inactive: -0.162 | inactive: -0.028 | inactive: -0.021 | inactive: 0 | inactive: -0.043 | inactive: 0.034 | inactive: 0.028 | inactive: -0.039 | inactive: 0.002 | inactive: -0.009 | inactive: -0.004 | inactive: -0.007 | inactive: -0.034
FLAD1 (UniProt Q8NFF5) | inactive: -0.051 | inactive: 0.022 | inactive: -0.063 | inactive: 0.055 | inactive: -0.028 | inactive: 0.01 | inactive: -0.002 | inactive: -0.035 | inactive: -0.001 | inactive: 0.075 | inactive: 0.035 | inactive: -0.214 | inactive: 0.039 | inactive: -0.008 | inactive: -0.013 | inactive: 0.031 | inactive: 0.137 | inactive: -0.025 | inactive: -0.013 | inactive: -0.042
